Like-named read-outs stand apart in the source and are kept apart here.
How the values were obtained:
[1] = test system: HEK 293T cells; parameters: method as in PMID 31498718; details: independent screen, CellTiterGlo; cited from earlier work
[2] = test system: 11 gynecologic cancer cell lines; test: qHTS ATPlite cell viability, gynecologic cancer cell lines (ovarian, cervical, placental); format: cell-based, human; details: toxic compounds, average over all cancer cell lines, mean ± S.D.
Method: (§1) The ATPlite luminescence assay system assay kit was used to determine cell viability. The reagent was reconstituted and prepared as described by the manufacturer. To measure the cell death caused by the compounds, cells were cultured in 4 μl of media for 16 hours at 37°C with 5% CO2 in assay plates, followed by the addition of DMSO or 16 SOC chemotherapeutic compounds dissolved in DMSO. SOC compounds were dosed at 11 concentrations (1:3 dilution) in quadruplicate from 57.5 μM to 0.977 nM using the automated Wako 1536 Pin Tool workstation and incubated at 37°C with 5% CO2 for 24, 48, or 72 hours. Four microliters of ATPlite, the ATP monitoring reagent, was then added to each well of the assay plates using the Multidrop Combi reagent dispenser followed by incubation for 15 minutes at room temperature. The resulting luminescence was measured using the ViewLux plate reader. Data were normalized for each drug using the largest luminescence value as 100% full cell viability (0% cell killing) and to the smallest luminescence value 0% viability (100% cell killing).
(§2) A qHTS [79], in which each compound was assayed in five concentrations (0.092, 0.46, 2.3, 11.5, and 57.5 μM), was performed for the primary compound screen using the NPC [80] and NPACT drug libraries at NCATS. […]

[3] = test system: HEK 293T cells; test: cells; details: Homo sapiens, 48 h, read-out: IC50 (HEK 293T toxicity)
Method: as §1, §2

## O=C(CCCCCCC(=O)Nc1ccccc1)NO [Vorinostat]
[1]
  IC50: 4.09 µM
[2]; Homo sapiens, 48 h
  IC50: 5.5 ± 4.17 µM
[2]; selectivity index vs HEK 293T
  Average SI: 3.72 ± 2.24
[3]
  IC50: 11.3 µM

— publication PMC6302136, “Quantitative Chemotherapeutic Profiling of Gynecologic Cancer Cell Lines Using Approved Drugs and Bioactive Compounds^” (Translational Oncology, 2018)
